No constants are given. Whether binding was seen depends on the method and setting. Binding seen in cells or lysates may run through a third protein. Here binding means that the protein was enriched with, or labelled near, the bait; the list need not be complete.
Molecular target: RNase E (PA2976) of P. aeruginosa PAO1 with a C-terminal Strep-tag II (P. aeruginosa PAO1) (UniProt Q9HZM8)
Assay: affinity purification with mass spectrometry; Strep-tag II on the C-terminus of chromosomal RNase E in P. aeruginosa PAO1 as bait; cells infected with one of seven phages; eluates on SDS-PAGE, gel slices, ESI-MS/MS

Chains of the proteins cited; added tags and fusions are not shown.
UniProt Q9HZM8: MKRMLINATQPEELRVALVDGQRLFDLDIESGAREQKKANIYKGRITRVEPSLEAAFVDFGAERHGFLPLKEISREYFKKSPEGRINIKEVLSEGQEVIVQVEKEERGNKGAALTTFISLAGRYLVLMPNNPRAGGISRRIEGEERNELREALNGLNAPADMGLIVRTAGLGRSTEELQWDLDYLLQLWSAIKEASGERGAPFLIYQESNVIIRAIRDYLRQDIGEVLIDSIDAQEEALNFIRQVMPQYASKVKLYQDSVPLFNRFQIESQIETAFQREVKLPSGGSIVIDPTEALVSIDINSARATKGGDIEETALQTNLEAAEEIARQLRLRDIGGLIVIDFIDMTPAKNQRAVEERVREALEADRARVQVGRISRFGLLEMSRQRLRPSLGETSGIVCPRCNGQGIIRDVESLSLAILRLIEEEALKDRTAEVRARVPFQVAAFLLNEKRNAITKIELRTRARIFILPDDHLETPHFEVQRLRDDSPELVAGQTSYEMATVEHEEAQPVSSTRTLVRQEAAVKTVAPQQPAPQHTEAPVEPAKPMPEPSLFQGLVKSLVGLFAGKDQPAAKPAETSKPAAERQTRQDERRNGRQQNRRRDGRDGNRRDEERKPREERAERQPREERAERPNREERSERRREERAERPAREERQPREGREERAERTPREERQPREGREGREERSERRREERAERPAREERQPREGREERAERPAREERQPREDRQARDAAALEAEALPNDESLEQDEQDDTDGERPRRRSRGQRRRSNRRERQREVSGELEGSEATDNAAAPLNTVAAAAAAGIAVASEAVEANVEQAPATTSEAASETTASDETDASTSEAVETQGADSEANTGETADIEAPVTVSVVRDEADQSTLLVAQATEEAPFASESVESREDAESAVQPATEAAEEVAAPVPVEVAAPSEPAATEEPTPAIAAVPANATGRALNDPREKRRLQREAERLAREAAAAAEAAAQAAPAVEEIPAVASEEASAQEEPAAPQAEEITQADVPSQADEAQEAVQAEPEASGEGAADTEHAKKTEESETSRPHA

B1: PNPase (polynucleotide phosphorylase) of P. aeruginosa, endogenous (enzyme, UniProt Q9HV59 1-701)
chain: MNPVTKQFQFGQSTVTLETGRIARQATGAVLVTMDDVSVLVTVVGAKSPAEGRDFFPLSVHYQEKTYAAGRIPGGFFKREGRPSEKETLTSRLIDRPIRPLFPEGFMNEVQVVCTVVSTNKKSDPDIAAMIGTSAALAISGIPFAGPIGAARVGFHPEIGYILNPTYEQLQSSSLDMVVAGTEDAVLMVESEADELTEDQMLGAVLFAHDEFQAVIRAVKELAAEAGKPAWDWKAPAENTVLVNAIKAELGEAISQAYTITIKQDRYNRLGELRDQAVALFAGEEEGKFPASEVKDVFGLLEYRTVRENIVNGKPRIDGRDTRTVRPLRIEVGVLGKTHGSALFTRGETQALVVATLGTARDAQLLDTLEGERKDAFMLHYNFPPFSVGECGRMGSPGRREIGHGRLARRGVAAMLPTQDEFPYTIRVVSEITESNGSSSMASVCGASLALMDAGVPVKAPVAGIAMGLVKEGEKFAVLTDILGDEDHLGDMDFKVAGTDKGVTALQMDIKINGITEEIMEIALGQALEARLNILGQMNQVIAKPRAELSENAPTMLQMKIDSDKIRDVIGKGGATIRGICEETKASIDIEDDGSVKIYGETKEAAEAAKLRVLAITAEAEIGKIYVGKVERIVDFGAFVNILPGKDGLVHISQISDKRIDKVTDVLQEGQEVKVLVLDVDNRGRIKLSIKDVAAAEASGV
With B1 the binding was “binds”.

B2: DeaD of P. aeruginosa, endogenous (enzyme, UniProt Q9I003 1-567)
chain: MGLCGCIRGKPMTQETVGFAALGIHPNVLAAIVAVGYEEPSPIQAQSIPLILEGHDMIGQAQTGTGKTAAFALPLLSRIDPSRREPQMLVLVPTRELALQVATACETYSKQLPGVGVVAVYGGAPMGPQLKALRQGAQILVATPGRLCDHLRRDEKLLATVQRLVLDEADEMLKLGFMDDLEVIFEALPESRQTVLFSATLPASIRGIAERHLKQPKHVKIAAKTQTVARIEQVHLMVHADQKAGSIQRLLEVEQFDALIAFVRTKQATLDYAELLERQGYRAAALNGDMPQAQRERVIESLKDGSLDIVIATDVAARGLDVPRITHVLNIDMPYDPESYVHRIGRTGRAGREGRALLLVTPRERRMLQVIERVTGQKVGEVRLPDAETVLEARLARLAASLTPLLDSAVEQRGAVRDELCRRLGCDAETLAAALLARLTAGKALDLESVRREQPLTPSAPRERADRGERGERPERSGERRPMAPPSEGRARCRTALGARDGVAAKNLLGAILNEGGLSREDIGRIQIRDTFSLIELPEANLERLLTKLKDTRVAGKALRLRRYRED
With B2 the binding was “binds”.

Reference: paper PMC4980113
